Data from patent US20240261362A1, “Use Of Vetiver Product In Preparation Of Drug Having Anti-Inflammatory Effect And Capable Of Improving Animal Immunity” (Henan Agricultural University, priority 2023, published 2024).
For at least one compound, name, drawing or mass did not settle the structure.

Legend:
Format in all cases: in vivo
TNF-α = TNF-α mRNA in mouse ear tissue after inflammation (RT-PCR); conditions: compared with blank control group; all dose groups; FIG. 15
IL-6 = IL-6 mRNA in mouse ear tissue after inflammation (RT-PCR); conditions: compared with blank control group; all dose groups; FIG. 16
IL-1β = IL-1β mRNA in mouse ear tissue after inflammation (RT-PCR); conditions: compared with blank control group; all dose groups; FIG. 17

C[C@@H]1C[C@H]2[C@@H]3CCC4=CC(=O)C=C[C@]4(C)[C@@]3(F)[C@@H](O)C[C@]2(C)[C@@]1(O)C(=O)CO [DXM, dexamethasone]
significantly decreased: mRNA expression level of TNF-α in mouse inflammatory (ear) tissue (TNF-α) | mRNA expression level of IL-6 in mouse inflammatory (ear) tissue (IL-6) | mRNA expression level of IL-1β in mouse inflammatory (ear) tissue (IL-1β)
